The target of assay [1] is Flag-tagged human Aurora B, wild-type (full-length) (human) (UniProt Q96GD4). Description: co-IP; purified Flag-tagged Aurora B mixed with 293T extracts containing HA-tagged INCENP (IN-box polypeptide); immunoprecipitated with anti-Flag antibody; HA-INCENP detected by western blotting with anti-HA antibody; only the target purified. For orientation: In western blotting, separated proteins are transferred to a membrane and probed.

By UniProt entry, the sequences of proteins in these tests, tags left out. Where a name states a change or a piece, a line headed by the entry shows the natural chain unless it says otherwise. Residues count along the entry.
UniProt Q96GD4: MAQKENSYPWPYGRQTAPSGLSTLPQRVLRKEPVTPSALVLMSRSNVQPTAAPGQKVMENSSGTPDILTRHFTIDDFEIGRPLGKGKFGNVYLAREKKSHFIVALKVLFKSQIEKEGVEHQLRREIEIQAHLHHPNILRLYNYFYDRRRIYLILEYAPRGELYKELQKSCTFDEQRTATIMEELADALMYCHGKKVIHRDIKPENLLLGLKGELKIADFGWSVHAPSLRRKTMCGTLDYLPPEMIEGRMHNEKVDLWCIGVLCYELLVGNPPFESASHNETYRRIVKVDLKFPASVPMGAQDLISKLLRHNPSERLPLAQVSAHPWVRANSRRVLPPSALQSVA
UniProt O55099: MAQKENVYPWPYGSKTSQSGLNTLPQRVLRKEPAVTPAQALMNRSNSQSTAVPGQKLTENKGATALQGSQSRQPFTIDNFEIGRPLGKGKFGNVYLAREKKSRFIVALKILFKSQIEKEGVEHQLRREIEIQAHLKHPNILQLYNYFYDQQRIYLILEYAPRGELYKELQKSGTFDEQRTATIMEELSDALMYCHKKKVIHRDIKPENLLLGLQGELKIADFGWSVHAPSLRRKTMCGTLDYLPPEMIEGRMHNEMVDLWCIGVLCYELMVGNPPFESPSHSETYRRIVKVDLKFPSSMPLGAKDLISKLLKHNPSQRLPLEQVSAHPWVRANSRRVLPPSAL
UniProt Q9NQS7, residues 803-918: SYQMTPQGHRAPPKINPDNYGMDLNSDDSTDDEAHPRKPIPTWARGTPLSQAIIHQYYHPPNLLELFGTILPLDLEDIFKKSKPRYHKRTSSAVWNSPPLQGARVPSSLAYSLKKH

Assay [2] addresses GST-tagged rat Aurora B, kinase-dead [K109R] (rat) (UniProt O55099). Kind of assay: pull-down; GST-Aurora B (rat) and His-tagged INCENP IN-box (mouse) co-expressed in Sf9 cells by co-infection of baculoviruses; complex purified by affinity chromatography on glutathione-sepharose 4B.
For assay [3], the target named is GST-tagged rat Aurora B, wild-type (rat) (UniProt O55099). The description is as above.

These are yes or no findings as the source states them, for the method shown. In cells and extracts the contact can be indirect. Some binding calls cover weakened binding; strength is not graded here. For part of these data: Tags and fused reporters may be left off the sequences shown.

Among the data in article PMC6901529 are binding values, retold here.

In the case of “HA-tagged INCENP (IN-box polypeptide; amino acids 803-918) (from UniProt Q9NQS7 803-918) (domain or fragment)”, the binding entry in assay [1] was “binds”.

B1: His-tagged IN-box (amino acids 786-876) of mouse INCENP (domain or fragment, UniProt Q9WU62 786-876)
chain: SVDDYGMDLNSDDSTDDESHPRKPIPSWAKGTQLSQAIVHQYYHPPNILELFGSILPLDLEDIFKKRKTRYHKRTSSAVWNSPPLKATMVP
For B1, the binding entry in assay [2] and in assay [3] was “binds” throughout.
